Reference: the M2OR odorant receptor database
Residue numbers refer to the chain shown, from its start. This is a selection; strong and weak results do not stand in their true shares. Calls are pooled over several reports, among them a noisy single-well screen. Some of the results follow.

Protein sequences, listed by entry. Tags and fused reporters are not part of them. Lines headed by an entry give the natural chain unless they say otherwise; changes in a name come on top.
UniProt Q8NH64: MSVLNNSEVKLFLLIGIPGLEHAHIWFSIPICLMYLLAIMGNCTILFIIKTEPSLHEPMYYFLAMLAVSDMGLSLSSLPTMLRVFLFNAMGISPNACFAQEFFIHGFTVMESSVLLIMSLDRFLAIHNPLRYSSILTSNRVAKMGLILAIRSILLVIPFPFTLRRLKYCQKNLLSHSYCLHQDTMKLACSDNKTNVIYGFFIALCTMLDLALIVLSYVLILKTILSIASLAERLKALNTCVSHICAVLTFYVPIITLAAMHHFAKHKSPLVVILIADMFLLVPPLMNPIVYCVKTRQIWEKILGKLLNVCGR
UniProt Q9Y5P0: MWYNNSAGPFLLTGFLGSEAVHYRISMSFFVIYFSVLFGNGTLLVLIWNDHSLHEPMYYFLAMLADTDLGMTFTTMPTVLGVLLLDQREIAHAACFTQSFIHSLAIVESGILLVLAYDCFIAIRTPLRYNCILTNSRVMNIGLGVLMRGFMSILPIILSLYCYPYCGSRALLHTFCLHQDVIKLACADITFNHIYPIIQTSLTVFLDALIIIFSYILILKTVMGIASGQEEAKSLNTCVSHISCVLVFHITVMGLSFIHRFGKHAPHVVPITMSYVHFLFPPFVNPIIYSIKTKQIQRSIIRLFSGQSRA

Legend:
Details in all cases: stereoisomer not certain
[1] = molecular target: T1, OR4S2 (Homo sapiens) (UniProt Q8NH73)
T1 sequence (whole entry): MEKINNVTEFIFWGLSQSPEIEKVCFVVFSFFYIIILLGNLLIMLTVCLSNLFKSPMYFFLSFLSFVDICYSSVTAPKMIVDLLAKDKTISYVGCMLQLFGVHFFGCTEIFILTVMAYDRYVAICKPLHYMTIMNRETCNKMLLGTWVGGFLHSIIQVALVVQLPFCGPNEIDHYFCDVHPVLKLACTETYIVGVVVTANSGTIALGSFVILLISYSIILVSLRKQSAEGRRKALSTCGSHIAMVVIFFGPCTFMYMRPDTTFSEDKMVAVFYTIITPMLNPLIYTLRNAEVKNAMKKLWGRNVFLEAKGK
How it was run: (§1)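 Values were gathered from published papers (main text and supplementary material), with extra details requested from the original authors when needed, and checked for typos and inconsistencies. Each receptor–molecule pair is called responsive (active) if the original authors judged the measured signal statistically different from baseline, and non-responsive (inactive) otherwise. Assay methods varied by source, often transient mammalian cell-line luciferase assays. Recorded details include cell line, G-protein, co-transfected protein and tags.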

[2] = test system: T2, OR4X1
T2 sequence (whole entry): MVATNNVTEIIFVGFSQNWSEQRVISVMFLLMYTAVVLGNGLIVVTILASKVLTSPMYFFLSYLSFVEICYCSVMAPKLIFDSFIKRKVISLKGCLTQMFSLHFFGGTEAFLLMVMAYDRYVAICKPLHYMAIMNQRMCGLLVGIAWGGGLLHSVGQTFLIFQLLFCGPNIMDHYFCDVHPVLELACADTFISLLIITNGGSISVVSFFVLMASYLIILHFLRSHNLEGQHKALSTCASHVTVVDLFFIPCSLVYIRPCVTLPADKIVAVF
How it was run: as §1

[3] = molecular target: T3, OR4X2 (Homo sapiens) (UniProt Q8NGF9)
T3 sequence (whole entry): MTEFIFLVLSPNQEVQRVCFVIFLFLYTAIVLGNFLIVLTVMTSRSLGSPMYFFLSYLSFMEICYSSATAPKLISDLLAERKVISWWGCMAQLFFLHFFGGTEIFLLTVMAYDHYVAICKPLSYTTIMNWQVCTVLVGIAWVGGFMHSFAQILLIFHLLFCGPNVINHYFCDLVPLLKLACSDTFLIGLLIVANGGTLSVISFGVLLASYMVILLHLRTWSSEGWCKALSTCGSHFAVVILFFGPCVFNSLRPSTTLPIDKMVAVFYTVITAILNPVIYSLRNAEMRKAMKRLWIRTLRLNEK
How it was run: as §1

[4] = molecular target: T4, OR51A2 (Homo sapiens) (UniProt Q8NGJ7)
T4 sequence (whole entry): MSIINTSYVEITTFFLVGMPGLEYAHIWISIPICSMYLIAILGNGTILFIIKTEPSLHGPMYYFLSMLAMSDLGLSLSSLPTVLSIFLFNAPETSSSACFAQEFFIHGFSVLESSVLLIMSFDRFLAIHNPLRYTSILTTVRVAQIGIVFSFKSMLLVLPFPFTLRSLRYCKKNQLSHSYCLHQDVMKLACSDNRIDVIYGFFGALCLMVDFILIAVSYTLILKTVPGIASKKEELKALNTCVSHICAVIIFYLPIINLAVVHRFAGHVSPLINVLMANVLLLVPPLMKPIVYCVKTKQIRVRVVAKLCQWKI
How it was run: as §1

[5] = molecular target: T5, OR51B2 (Homo sapiens) (UniProt Q9Y5P1)
T5 sequence (whole entry): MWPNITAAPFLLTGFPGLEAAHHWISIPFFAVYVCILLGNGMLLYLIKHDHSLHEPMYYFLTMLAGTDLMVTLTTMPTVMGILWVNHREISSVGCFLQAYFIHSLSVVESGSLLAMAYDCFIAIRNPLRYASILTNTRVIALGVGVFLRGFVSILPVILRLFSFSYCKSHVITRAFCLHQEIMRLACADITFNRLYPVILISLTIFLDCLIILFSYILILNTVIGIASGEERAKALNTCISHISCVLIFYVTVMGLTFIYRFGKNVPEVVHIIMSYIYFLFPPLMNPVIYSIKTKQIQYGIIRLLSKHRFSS
How it was run: as §1

[6] = molecular target: T6, OR51A4 (Homo sapiens) (UniProt Q8NGJ6)
T6 sequence (whole entry): T4 sequence (whole entry) with G59E, T94I, S97N, S167N, P227L, E235Q, G267R, M288T, K289N, W311R
How it was run: as §1

[7] = molecular target: OR51A7 (Homo sapiens) (UniProt Q8NH64)
How it was run: as §1

[8] = molecular target: OR51B4 (Homo sapiens) (UniProt Q9Y5P0)
How it was run: as §1

[9] = molecular target: T7, OR51B5 (Homo sapiens) (UniProt Q9H339)
T7 sequence (whole entry): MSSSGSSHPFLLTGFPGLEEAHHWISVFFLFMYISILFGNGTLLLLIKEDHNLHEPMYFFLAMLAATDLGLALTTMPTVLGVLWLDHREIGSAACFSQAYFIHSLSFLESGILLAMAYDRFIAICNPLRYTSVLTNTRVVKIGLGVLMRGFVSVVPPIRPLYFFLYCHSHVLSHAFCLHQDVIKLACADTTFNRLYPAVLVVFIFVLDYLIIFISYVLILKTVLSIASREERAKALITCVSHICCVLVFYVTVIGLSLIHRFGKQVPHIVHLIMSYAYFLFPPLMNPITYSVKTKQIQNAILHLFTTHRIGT
How it was run: as §1

[10] = molecular target: OR4X1 (Homo sapiens) (UniProt Q8NH49)
How it was run: as §1

Measured: odorant receptor agonist call

CCCCCCCCOC(C)=O
inactive: [1] | [2] | [3] | [4] | [5]

CC(C)CC(=O)O
inactive: [1] | [2] | [3] | [4] | [5]

CCCCCC(C)=O
inactive: [1] | [2] | [3]

CC(C)(C)c1ccc(CCC=O)cc1
inactive: [1] | [2] | [3] | [4] | [5]

CC=Cc1ccc(O)c(OC)c1
active: [1] | [4] | [5]
inactive: [2] | [3]

COC(=O)c1ccccc1O
inactive: [1] | [2] | [3] | [4] | [5]

O=CCc1ccccc1
inactive: [1] | [2] | [3] | [5]
active: [4]

CC(C)=CCCC(C)=CC=O
inactive: [1] | [2] | [3]
active: [4] | [6] | [5]

O=C1CCCCCCCCCCCC(=O)OCCO1
active: [2] | [5]
inactive: [1] | [3] | [4]

CCC1(O)C2(C)CCC(C2)C1(C)C (stereo unspecified)
inactive: [1] | [2] | [3] | [4] | [5]

CC(=O)OC1CC2CCC1(C)C2(C)C (stereo unspecified)
inactive: [1] | [2] | [3] | [4] | [5]

CC(=O)c1ccccc1
active: [1] | [3]
inactive: [2]

O=C1CCCCCCCCCCCCCCO1
inactive: [1] | [2] | [3] | [4] | [5]

CCCC(=O)O
not listed: [10]
inactive: all other assays above

CC(C)C=O
inactive: [1] | [2] | [3] | [4] | [5]

CC12CCC(C1)C(C)(C)C2=O (stereo unspecified)
inactive: [1] | [2] | [3] | [4] | [5]

COC(=O)c1ccccc1
inactive: [1] | [2] | [3]

C=CCSCC=C
inactive: [1] | [2] | [3] | [4] | [5]

COc1ccccc1O
inactive: [1] | [2] | [3] | [4] | [5]

CC12CCC(CC1)C(C)(C)O2
inactive: [1] | [2] | [3] | [4] | [5]

CC(=O)C(C)=O
not listed: [10]
inactive: all other assays above

CCCCCCCOC(C)=O
inactive: [1] | [2] | [3] | [4] | [5]

C=CCc1ccc(OC)c(OC)c1
inactive: [1] | [2] | [3] | [4] | [5]

CC1=CCC(C(C)(C)O)CC1 (stereo unspecified)
inactive: [1] | [2] | [3] | [4] | [5]

CC1=NC(C)SC1C (stereo unspecified)
inactive: [1] | [2] | [3]

O=C1CCCCC1
inactive: [1] | [2] | [3]

CCCCCCCCCC=O
inactive: [1] | [2] | [3] | [4] | [5]

CCCCCCCC=CC=O
inactive: [1] | [2] | [3] | [4] | [5]

CC1COCc2cc3c(cc21)C(C)(C)C(C)C3(C)C (stereo unspecified)
inactive: [3] | [5]
active: [1] | [2] | [4]

COc1cc(C=O)ccc1O
inactive: [1] | [2] | [3] | [4] | [5] | [9]

CC(=O)OC(C)(C)C1CC=C(C)CC1 (stereo unspecified)
inactive: [1] | [2] | [3] | [4] | [5]

CCCCCCCC=O
inactive: [1] | [2] | [3] | [4] | [5] | [9]

CC(C)(O)CCCC1=CCC(C=O)CC1 (stereo unspecified)
inactive: [4] | [5] | [9]

c1cnccn1
inactive: [1] | [2] | [3] | [4] | [5]

C=CC(C)(O)CCC=C(C)C (stereo unspecified)
inactive: [1] | [2] | [3] | [4] | [5] | [9]

CC12C=CCC1C1CCC3CC(=O)CCC3(C)C1CC2 (stereo unspecified)
inactive: [10] | [2] | [3] | [4] | [6] | [5]

CCCCCC(=O)O
inactive: [1] | [2] | [3] | [4] | [5] | [9]

CC1CCC(C(C)C)C(O)C1 (stereo unspecified)
inactive: [1] | [2] | [3] | [4] | [5] | [9]

CCCCCCOC(=O)CCC
inactive: [1] | [2] | [3] | [4] | [5]

C=CCc1ccc(O)c(OC)c1
inactive: [9]

C=C(C)C1CC=C(C)C(=O)C1 (stereo unspecified)
inactive: [9]

CC(C)C(=O)O
inactive: [1] | [2] | [3] | [4] | [5]

C=CCc1ccc(OC(C)=O)c(OC)c1
inactive: [1] | [2] | [3]
active: [4] | [5]

CCCCO
inactive: [1] | [2] | [3] | [4] | [5] | [9]

CCC=CCCO
inactive: [1] | [2] | [3] | [4] | [5]

c1ccc(Oc2ccccc2)cc1
inactive: [1] | [2] | [3] | [4] | [5]

CCCCCOC(C)=O
inactive: [1] | [2] | [3] | [4] | [5]

CC(C)CCC(=O)O
inactive: [1] | [2] | [3] | [4] | [5]

COc1cc(C)ccc1O
inactive: [1] | [3] | [4] | [5]
active: [2]

CCCCCCCCCCC=O
inactive: [1] | [2] | [3] | [4] | [5] | [9]

CC12C=CCC1C1CCC3=CC(=O)CCC3(C)C1CC2 (stereo unspecified)
inactive: [1] | [2] | [3] | [4] | [5]

CC(=O)OCC=C(C)CCC=C(C)C
inactive: [1] | [2] | [3] | [4] | [5]

CCCCCCCCC=O
inactive: [6] | [9]

C=C(C)C1CCC2=CC(=O)CC(C)C2(C)C1 (stereo unspecified)
inactive: [4]
active: [5]
